Measurements published in article doi:10.1101/2024.09.30.615192.
Like-named read-outs stand apart in the source and are kept apart here. Results are given in words; binding and its absence hold for the method and conditions named. Binding seen in cells or lysates may run through a third protein. These calls come from enrichment with a bait or labelling near it, and not all partners need be listed.

Protein sequences, listed by entry. Tags and fused reporters are not part of them.
UniProt Q9UHI7: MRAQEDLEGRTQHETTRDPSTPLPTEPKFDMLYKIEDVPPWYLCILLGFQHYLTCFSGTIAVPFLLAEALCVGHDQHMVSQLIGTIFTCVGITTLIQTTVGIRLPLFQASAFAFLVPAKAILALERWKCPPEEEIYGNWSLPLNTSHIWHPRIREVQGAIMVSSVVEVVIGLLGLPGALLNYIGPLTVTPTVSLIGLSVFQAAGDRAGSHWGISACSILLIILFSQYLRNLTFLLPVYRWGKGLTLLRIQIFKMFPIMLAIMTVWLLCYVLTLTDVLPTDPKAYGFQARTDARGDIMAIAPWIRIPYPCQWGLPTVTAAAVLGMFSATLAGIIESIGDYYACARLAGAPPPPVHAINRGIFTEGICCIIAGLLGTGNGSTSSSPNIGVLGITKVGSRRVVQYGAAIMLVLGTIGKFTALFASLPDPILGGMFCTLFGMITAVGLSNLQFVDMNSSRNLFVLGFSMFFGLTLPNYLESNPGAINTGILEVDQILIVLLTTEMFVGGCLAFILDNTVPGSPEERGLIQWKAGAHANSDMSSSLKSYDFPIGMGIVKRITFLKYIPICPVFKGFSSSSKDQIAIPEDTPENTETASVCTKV
UniProt Q9UM01: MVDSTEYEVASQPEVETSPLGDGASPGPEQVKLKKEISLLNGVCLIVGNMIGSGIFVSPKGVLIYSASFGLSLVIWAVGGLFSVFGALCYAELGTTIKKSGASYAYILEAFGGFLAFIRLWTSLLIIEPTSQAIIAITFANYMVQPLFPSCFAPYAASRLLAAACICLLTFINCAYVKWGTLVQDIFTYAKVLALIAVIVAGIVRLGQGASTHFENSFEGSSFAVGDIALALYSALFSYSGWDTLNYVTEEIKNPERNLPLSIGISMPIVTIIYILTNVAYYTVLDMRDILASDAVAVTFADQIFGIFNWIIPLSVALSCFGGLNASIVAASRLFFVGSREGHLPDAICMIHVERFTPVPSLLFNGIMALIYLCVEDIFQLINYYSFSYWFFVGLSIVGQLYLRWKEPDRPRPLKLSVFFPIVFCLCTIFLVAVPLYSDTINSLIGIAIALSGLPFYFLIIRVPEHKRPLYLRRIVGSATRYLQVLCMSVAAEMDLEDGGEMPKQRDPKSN
UniProt Q10471: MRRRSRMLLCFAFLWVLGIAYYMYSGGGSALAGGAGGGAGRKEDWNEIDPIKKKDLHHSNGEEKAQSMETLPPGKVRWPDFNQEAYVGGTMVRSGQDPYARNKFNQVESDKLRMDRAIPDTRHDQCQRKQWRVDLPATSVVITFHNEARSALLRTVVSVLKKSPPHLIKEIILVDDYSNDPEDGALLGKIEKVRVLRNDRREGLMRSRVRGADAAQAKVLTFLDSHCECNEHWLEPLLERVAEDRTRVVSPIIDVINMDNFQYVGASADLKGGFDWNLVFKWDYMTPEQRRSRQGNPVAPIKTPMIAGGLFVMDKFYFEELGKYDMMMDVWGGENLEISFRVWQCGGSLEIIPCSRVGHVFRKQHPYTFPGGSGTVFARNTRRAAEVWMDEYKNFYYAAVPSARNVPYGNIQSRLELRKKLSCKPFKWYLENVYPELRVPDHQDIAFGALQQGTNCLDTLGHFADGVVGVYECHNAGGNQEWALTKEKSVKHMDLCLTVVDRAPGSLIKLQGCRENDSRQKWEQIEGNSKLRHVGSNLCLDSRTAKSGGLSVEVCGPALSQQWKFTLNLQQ
UniProt Q8N4N3: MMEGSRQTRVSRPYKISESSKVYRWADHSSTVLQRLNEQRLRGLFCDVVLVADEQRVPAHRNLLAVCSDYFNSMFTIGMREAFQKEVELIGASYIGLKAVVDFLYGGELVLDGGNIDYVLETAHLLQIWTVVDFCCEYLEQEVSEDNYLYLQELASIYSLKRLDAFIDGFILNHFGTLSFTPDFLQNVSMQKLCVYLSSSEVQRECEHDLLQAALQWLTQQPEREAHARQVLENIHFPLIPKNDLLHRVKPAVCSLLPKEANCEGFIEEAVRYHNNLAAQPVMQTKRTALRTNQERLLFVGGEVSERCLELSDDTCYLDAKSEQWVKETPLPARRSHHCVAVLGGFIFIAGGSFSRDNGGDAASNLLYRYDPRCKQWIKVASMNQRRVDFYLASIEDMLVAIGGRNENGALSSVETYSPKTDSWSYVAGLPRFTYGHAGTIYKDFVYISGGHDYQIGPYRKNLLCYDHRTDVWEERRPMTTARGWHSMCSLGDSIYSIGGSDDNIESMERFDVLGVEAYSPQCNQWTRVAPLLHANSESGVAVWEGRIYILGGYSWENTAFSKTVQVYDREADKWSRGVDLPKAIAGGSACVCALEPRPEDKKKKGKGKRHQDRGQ
UniProt Q86TM6: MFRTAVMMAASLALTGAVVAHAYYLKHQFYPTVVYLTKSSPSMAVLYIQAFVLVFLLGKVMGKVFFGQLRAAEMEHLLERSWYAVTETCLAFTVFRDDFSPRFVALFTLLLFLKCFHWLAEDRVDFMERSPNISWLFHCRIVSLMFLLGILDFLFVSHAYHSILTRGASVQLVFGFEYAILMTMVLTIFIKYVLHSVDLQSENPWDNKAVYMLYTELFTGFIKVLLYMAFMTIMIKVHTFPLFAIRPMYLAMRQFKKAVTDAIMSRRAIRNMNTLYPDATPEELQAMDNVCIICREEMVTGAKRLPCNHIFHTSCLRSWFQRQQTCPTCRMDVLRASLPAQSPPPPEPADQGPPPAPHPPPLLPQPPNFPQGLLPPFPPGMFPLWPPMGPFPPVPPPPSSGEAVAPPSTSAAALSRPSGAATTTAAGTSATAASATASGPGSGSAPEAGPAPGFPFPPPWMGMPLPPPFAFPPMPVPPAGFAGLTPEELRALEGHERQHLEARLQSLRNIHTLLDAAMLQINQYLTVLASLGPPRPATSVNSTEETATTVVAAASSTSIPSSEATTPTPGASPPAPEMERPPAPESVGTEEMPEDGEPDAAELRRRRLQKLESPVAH

Assays:
Test in all cases: affinity purification with mass spectrometry
[1] = target: SLC23A1 (human) (UniProt Q9UHI7)
[2] = target: T1, SLC6A15 (human) (UniProt Q9H2J7)
T1 sequence: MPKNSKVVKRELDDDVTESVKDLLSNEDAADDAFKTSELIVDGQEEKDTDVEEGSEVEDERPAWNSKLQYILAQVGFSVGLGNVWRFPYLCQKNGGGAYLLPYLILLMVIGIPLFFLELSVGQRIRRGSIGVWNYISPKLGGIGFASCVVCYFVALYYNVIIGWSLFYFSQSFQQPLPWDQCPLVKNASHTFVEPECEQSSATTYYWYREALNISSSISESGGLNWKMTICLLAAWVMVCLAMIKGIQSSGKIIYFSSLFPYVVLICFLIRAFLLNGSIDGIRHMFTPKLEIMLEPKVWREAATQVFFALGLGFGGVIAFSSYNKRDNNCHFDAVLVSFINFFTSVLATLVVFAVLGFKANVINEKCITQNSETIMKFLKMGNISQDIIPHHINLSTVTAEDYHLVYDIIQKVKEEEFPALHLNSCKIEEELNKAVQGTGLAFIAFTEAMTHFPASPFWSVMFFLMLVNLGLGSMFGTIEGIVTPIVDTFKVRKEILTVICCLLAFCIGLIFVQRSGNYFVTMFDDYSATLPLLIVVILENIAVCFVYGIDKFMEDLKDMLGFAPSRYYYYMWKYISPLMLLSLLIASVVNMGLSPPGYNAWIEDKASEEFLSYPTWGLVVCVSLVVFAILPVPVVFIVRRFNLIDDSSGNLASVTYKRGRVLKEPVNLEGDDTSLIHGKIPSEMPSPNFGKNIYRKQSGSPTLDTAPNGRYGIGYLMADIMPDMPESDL

[3] = target: T2, SLC6A17 (human) (UniProt Q9H1V8)
T2 sequence: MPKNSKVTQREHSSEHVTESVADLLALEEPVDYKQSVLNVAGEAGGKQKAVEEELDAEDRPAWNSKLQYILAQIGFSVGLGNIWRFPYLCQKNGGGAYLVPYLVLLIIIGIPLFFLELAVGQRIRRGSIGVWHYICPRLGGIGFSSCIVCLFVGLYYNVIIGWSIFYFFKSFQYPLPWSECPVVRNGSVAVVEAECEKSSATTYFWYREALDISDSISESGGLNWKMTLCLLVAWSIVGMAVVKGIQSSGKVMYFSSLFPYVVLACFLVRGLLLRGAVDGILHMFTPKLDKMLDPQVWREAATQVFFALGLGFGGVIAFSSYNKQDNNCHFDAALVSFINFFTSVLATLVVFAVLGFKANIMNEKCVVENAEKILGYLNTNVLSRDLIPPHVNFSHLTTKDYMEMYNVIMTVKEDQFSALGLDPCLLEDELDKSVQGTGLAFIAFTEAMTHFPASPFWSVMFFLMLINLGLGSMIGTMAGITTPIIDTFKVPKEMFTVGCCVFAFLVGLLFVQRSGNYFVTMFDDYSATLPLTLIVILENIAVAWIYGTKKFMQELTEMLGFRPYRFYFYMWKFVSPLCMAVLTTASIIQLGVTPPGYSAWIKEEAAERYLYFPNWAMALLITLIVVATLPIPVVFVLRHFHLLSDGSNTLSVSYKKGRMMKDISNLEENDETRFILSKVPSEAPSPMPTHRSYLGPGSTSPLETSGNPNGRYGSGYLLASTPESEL

[4] = target: SLC7A7 (human) (UniProt Q9UM01)
[5] = target: T1, SLC6A15 (human); remark: listed apart in the source
[6] = target: SLC43A2 (human) (UniProt Q8N370)
[7] = target: T3, SLC31A1 (human) (UniProt O15431)
T3 sequence: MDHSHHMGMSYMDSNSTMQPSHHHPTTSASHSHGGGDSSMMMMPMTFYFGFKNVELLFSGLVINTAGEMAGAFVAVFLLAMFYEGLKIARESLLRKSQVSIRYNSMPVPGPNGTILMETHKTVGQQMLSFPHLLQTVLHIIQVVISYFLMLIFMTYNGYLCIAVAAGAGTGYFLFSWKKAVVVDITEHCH

“GalNAc transferase GALNT2 (from UniProt Q10471 1-571)” was tested, and the binding [1] was “binds”.

With KLHL36 (from UniProt Q8N4N3 1-616) the binding [2] was “binds” and the binding [3] was “binds”.

With “amino acid transporter heavy chain (SLC3A2) (from UniProt P08195 1-529)” the binding [4] was “binds”.

In the case of “ubiquitin ligase SYVN1 (from UniProt Q86TM6 1-617)”, the binding [1] is reported as “binds”.

B1: GOLGA5 (protein, UniProt Q8TBA6 1-731)
chain: MSWFVDLAGKAEDLLNRVDQGAATALSRKDNASNIYSKNTDYTELHQQNTDLIYQTGPKSTYISSAADNIRNQKATILAGTANVKVGSRTPVEASHPVENASVPRPSSHFVRRKKSEPDDELLFDFLNSSQKEPTGRVEIRKEKGKTPVFQSSQTSSVSSVNPSVTTIKTIEENSFGSQTHEAASNSDSSHEGQEESSKENVSSNAACPDHTPTPNDDGKSHELSNLRLENQLLRNEVQSLNQEMASLLQRSKETQEELNKARARVEKWNADHSKSDRMTRGLRAQVDDLTEAVAAKDSQLAVLKVRLQEADQLLSTRTEALEALQSEKSRIMQDQSEGNSLQNQALQTFQERLHEADATLKREQESYKQMQSEFAARLNKVEMERQNLAEAITLAERKYSDEKKRVDELQQQVKLYKLNLESSKQELIDYKQKATRILQSKEKLINSLKEGSGFEGLDSSTASSMELEELRHEKEMQREEIQKLMGQIHQLRSELQDMEAQQVNEAESAREQLQDLHDQIAGQKASKQELETELERLKQEFHYIEEDLYRTKNTLQSRIKDRDEEIQKLRNQLTNKTLSNSSQSELENRLHQLTETLIQKQTMLESLSTEKNSLVFQLERLEQQMNSASGSSSNGSSINMSGIDNGEGTRLRNVPVLFNDTETNLAGMYGKVRKAASSIDQFSIRLGIFLRRYPIARVFVIIYMALLHLWVMIVLLTYTPEMHHDQPYGK
In the case of B1, the binding [5] is reported as “binds”.

B2: MPP1 (protein, UniProt Q00013 1-466)
chain: MTLKASEGESGGSMHTALSDLYLEHLLQKRSRPEAVSHPLNTVTEDMYTNGSPAPGSPAQVKGQEVRKVRLIQFEKVTEEPMGITLKLNEKQSCTVARILHGGMIHRQGSLHVGDEILEINGTNVTNHSVDQLQKAMKETKGMISLKVIPNQQSRLPALQMFMRAQFDYDPKKDNLIPCKEAGLKFATGDIIQIINKDDSNWWQGRVEGSSKESAGLIPSPELQEWRVASMAQSAPSEAPSCSPFGKKKKYKDKYLAKHSSIFDQLDVVSYEEVVRLPAFKRKTLVLIGASGVGRSHIKNALLSQNPEKFVYPVPYTTRPPRKSEEDGKEYHFISTEEMTRNISANEFLEFGSYQGNMFGTKFETVHQIHKQNKIAILDIEPQTLKIVRTAELSPFIVFIAPTDQGTQTEALQQLQKDSEAIRSQYAHYFDLSLVNNGVDETLKKLQEAFDQACSSPQWVPVSWVY
For B2, the binding [6] was “binds”.

B3: syntaxin-7 (protein, UniProt O15400 1-261)
chain: MSYTPGVGGDPAQLAQRISSNIQKITQCSVEIQRTLNQLGTPQDSPELRQQLQQKQQYTNQLAKETDKYIKEFGSLPTTPSEQRQRKIQKDRLVAEFTTSLTNFQKVQRQAAEREKEFVARVRASSRVSGSFPEDSSKERNLVSWESQTQPQVQVQDEEITEDDLRLIHERESSIRQLEADIMDINEIFKDLGMMIHEQGDVIDSIEANVENAEVHVQQANQQLSRAADYQRKSRKTLCIIILILVIGVAIISLIIWGLNH
B3 was tested, and the binding [7] was “binds”.

B4: WDR6 (protein, UniProt Q9NNW5 1-1121)
chain: MDALEDYVWPRATSELILLPVTGLECVGDRLLAGEGPDVLVYSLDFGGHLRMIKRVQNLLGHYLIHGFRVRPEPNGDLDLEAMVAVFGSKGLRVVKISWGQGHFWELWRSGLWNMSDWIWDARWLEGNIALALGHNSVVLYDPVVGCILQEVPCTDRCTLSSACLIGDAWKELTIVAGAVSNQLLVWYPATALADNKPVAPDRRISGHVGIIFSMSYLESKGLLATASEDRSVRIWKVGDLRVPGGRVQNIGHCFGHSARVWQVKLLENYLISAGEDCVCLVWSHEGEILQAFRGHQGRGIRAIAAHERQAWVITGGDDSGIRLWHLVGRGYRGLGVSALCFKSRSRPGTLKAVTLAGSWRLLAVTDTGALYLYDVEVKCWEQLLEDKHFQSYCLLEAAPGPEGFGLCAMANGEGRVKVVPINTPTAAVDQTLFPGKVHSLSWALRGYEELLLLASGPGGVVACLEISAAPSGKAIFVKERCRYLLPPSKQRWHTCSAFLPPGDFLVCGDRRGSVLLFPSRPGLLKDPGVGGKARAGAGAPVVGSGSSGGGNAFTGLGPVSTLPSLHGKQGVTSVTCHGGYVYTTGRDGAYYQLFVRDGQLQPVLRQKSCRGMNWLAGLRIVPDGSMVILGFHANEFVVWNPRSHEKLHIVNCGGGHRSWAFSDTEAAMAFAYLKDGDVMLYRALGGCTRPHVILREGLHGREITCVKRVGTITLGPEYGVPSFMQPDDLEPGSEGPDLTDIVITCSEDTTVCVLALPTTTGSAHALTAVCNHISSVRAVAVWGIGTPGGPQDPQPGLTAHVVSAGGRAEMHCFSIMVTPDPSTPSRLACHVMHLSSHRLDEYWDRQRNRHRMVKVDPETRYMSLAVCELDQPGLGPLVAAACSDGAVRLFLLQDSGRILQLLAETFHHKRCVLKVHSFTHEAPNQRRRLLLCSAATDGSLAFWDLTTMLDHDSTVLEPPVDPGLPYRLGTPSLTLQAHSCGINSLHTLPTREGHHLVASGSEDGSLHVFVLAVEMLQLEEAVGEAGLVPQLRVLEEYSVPCAHAAHVTGLKILSPSIMVSASIDQRLTFWRLGHGEPTFMNSTVFHVPDVADMDCWPVSPEFGHRCALGGQGLEVYNWYD
With B4 the binding [7] was “binds”.
